No constants are given. Whether binding was seen depends on the method and setting. Binding seen in cells or lysates may run through a third protein. These calls come from enrichment with a bait or labelling near it, and not all partners need be listed. For part of these data: No binding means not detected with the bait. Sequences can lack the tags named with a protein.

The chains behind the UniProt entries cited, without tags or fusion partners. Where a name states a change or a piece, a line headed by the entry shows the natural chain unless it says otherwise.
UniProt F4JZU5: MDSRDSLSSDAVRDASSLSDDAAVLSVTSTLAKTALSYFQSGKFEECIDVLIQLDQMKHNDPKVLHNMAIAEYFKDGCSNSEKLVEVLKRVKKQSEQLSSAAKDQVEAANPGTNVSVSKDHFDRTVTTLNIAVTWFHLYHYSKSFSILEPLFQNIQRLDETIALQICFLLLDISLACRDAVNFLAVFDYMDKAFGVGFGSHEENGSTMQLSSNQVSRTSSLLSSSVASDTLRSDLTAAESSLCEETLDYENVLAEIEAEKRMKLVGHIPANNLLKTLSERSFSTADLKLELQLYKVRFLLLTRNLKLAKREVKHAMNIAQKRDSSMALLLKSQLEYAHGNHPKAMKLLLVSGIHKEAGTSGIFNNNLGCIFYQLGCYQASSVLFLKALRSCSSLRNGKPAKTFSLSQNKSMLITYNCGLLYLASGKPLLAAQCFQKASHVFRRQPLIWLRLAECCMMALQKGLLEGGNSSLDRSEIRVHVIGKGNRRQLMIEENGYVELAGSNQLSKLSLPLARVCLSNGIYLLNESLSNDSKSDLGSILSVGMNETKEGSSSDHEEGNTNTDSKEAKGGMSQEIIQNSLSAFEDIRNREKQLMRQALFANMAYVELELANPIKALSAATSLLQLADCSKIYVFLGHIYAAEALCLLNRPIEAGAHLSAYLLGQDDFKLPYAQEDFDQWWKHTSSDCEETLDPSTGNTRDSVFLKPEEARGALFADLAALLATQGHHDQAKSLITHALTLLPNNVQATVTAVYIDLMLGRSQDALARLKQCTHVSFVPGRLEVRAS
UniProt Q76E23: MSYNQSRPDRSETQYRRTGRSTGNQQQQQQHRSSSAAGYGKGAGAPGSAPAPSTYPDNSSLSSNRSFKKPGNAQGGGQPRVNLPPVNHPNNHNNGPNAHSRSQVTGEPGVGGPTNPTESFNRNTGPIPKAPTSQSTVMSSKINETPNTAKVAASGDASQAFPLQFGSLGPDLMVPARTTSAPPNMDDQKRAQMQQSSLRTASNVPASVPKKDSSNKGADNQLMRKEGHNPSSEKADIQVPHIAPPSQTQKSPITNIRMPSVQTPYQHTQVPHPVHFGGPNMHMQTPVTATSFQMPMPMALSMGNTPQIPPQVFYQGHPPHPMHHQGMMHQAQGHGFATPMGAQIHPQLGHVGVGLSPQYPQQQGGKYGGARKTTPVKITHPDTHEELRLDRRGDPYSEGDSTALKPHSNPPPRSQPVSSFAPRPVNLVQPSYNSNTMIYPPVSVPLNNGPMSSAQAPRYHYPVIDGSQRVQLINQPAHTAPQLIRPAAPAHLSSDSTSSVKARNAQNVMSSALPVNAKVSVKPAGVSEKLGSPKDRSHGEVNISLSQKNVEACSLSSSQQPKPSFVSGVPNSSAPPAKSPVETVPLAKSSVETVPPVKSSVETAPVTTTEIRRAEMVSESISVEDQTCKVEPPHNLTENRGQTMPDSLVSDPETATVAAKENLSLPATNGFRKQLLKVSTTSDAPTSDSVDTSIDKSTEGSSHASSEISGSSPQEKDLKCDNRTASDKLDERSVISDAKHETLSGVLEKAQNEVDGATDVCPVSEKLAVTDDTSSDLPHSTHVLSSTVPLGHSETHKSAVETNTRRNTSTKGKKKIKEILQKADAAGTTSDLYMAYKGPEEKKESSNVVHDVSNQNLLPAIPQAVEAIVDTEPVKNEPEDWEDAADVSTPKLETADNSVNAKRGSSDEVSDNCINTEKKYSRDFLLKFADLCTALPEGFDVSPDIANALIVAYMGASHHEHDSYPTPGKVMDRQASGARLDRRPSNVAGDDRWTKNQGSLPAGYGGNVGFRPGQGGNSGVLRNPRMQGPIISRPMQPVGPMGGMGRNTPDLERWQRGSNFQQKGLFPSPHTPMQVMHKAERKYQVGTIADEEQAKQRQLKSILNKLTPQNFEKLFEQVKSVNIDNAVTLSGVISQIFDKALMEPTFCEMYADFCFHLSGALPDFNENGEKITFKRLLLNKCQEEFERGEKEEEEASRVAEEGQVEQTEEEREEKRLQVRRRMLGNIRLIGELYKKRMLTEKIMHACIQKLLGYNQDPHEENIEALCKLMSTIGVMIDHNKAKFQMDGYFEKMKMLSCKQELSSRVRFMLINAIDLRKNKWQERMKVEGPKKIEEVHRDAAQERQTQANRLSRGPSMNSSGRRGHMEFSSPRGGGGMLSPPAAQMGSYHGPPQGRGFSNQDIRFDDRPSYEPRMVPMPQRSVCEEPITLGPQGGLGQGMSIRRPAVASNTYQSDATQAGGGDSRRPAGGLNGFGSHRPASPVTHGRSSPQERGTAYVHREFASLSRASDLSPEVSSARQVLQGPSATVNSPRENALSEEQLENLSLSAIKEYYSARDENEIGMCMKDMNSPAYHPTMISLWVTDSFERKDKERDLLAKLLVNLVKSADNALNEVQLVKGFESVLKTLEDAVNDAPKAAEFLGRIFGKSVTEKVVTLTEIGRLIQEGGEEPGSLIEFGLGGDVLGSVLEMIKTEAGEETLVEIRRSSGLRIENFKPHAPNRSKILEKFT

Assay [1] has as its target T1, URT1 (UTP:RNA U… 1) tagged with myc or YFP (Arabidopsis thaliana) (UniProt O64642).
T1 sequence: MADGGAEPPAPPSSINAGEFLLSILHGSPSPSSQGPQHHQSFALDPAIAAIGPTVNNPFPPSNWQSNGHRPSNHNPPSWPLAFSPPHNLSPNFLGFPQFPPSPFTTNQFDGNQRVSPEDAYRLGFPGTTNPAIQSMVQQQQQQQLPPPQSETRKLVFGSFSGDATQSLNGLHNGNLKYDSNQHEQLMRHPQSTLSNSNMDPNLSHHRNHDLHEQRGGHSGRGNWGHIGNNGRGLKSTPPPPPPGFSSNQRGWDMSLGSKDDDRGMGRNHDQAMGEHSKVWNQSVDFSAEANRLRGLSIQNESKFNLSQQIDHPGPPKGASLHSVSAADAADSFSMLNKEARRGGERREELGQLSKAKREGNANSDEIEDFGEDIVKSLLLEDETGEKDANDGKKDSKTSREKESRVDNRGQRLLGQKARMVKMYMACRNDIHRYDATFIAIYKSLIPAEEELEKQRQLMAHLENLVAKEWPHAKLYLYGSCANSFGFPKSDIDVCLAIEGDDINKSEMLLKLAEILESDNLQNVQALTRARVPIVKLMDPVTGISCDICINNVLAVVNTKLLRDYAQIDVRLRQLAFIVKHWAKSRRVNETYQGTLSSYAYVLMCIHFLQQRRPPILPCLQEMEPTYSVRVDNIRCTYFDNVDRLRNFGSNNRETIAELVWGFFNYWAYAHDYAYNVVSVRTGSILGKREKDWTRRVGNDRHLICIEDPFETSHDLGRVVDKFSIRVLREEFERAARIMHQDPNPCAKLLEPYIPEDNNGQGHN
Kind of assay: affinity purification with mass spectrometry; Arabidopsis flower bud extracts cross-linked with 0.375% formaldehyde; tagged URT1 captured on anti-c-myc or anti-GFP magnetic microbeads; washes 50 mM Tris-HCl pH 7.5, 50 mM NaCl, 0.1% Triton X-100; nanoLC-MS/MS, spectral counts against control IPs (Fig. 2a) or m1URT1-myc against URT1-myc (Fig. 2f).

Assay [2] concerns the target T1, URT1 (UTP:RNA U… 1) tagged with myc or YFP (Arabidopsis thaliana). Kind of assay: affinity purification with mass spectrometry; without crosslinking; Arabidopsis flower buds or seedlings in 50 mM Tris-HCl pH 8, 50 mM NaCl, 1% Triton X-100; anti-c-myc or anti-GFP magnetic microbeads; nanoLC-MS/MS against Col-0 control IPs (Fig. 2b).
For assay [3] the target is unchanged. Kind of assay: affinity purification with mass spectrometry; Arabidopsis flower bud extracts cross-linked with 0.375% formaldehyde; tagged URT1 captured on anti-c-myc or anti-GFP magnetic microbeads; washes 50 mM Tris-HCl pH 7.5, 50 mM NaCl, 0.1% Triton X-100; nanoLC-MS/MS, spectral counts against control IPs (Fig. 2a) or m1URT1-myc against URT1-myc (Fig. 2f). This is another data set of the same source.

For assay [4], the target named is T2, URT1-myc (Arabidopsis thaliana) (UniProt O64642).
T2 sequence: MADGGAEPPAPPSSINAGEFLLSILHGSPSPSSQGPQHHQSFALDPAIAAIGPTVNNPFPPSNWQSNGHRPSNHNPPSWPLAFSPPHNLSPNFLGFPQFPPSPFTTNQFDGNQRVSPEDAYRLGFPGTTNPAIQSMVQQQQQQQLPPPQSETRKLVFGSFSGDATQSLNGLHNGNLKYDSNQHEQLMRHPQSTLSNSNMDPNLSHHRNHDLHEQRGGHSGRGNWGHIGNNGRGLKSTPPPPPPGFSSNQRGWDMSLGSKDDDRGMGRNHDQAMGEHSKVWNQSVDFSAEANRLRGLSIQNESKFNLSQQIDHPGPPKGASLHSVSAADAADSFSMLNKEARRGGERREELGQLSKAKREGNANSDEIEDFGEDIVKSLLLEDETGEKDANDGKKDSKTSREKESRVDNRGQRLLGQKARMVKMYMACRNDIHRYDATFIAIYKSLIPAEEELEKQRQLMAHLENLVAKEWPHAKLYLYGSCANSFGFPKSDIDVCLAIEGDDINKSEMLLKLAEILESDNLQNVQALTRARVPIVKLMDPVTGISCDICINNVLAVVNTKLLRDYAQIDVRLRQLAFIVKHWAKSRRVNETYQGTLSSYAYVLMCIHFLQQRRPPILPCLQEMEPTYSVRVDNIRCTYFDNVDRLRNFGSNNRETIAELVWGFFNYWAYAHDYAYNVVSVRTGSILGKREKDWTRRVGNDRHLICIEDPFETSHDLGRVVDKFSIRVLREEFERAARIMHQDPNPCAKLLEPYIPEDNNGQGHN
The description is as above.

In the case of CNOT1, the binding entry in assay [1] is given as “binds”.
Consider CNOT10 (from UniProt F4JZU5), for which the binding entry in assay [1] is listed as “binds”.
For the molecule CNOT11, in assay [1], the binding result is “binds”.
Same read-out and setting: then DCP1, with “no binding”.
On to EXA1 homolog AT1G24300 (GYF protein), for which the binding entry in assay [1] is recorded as “binds”.
As for EXA1 homolog AT1G27430 (GYF protein), in assay [1], the binding result is given as “binds”.
For “translation initiation factor eIF4G (from UniProt Q76E23 1-1727)”, the binding result in assay [2] is “binds”.
In the case of “… FOR POTEXVIRUS ACCUMULATION 1 (EXA1) (from UniProt Q9FMM3 1-1714)”, the binding entry in assay [1] was “binds”.

B1: new cap-binding protein (nCBP) (protein, UniProt Q9FK59 1-221)
chain: MEVLDRRDDEIRDSGNMDSIKSHYVTDSVSEERRSRELKDGDHPLRYKFSIWYTRRTPGVRNQSYEDNIKKMVEFSTVEGFWACYCHLARSSLLPSPTDLHFFKDGIRPLWEDGANCNGGKWIIRFSKVVSARFWEDLLLALVGDQLDDADNICGAVLSVRFNEDIISVWNRNASDHQAVMGLRDSIKRHLKLPHAYVMEYKPHDASLRDNSSYRNTWLRG
Consider B1, for which the binding result in assay [3] was “binds”.

B2: … 5-LIKE (DCP5-L) (protein, UniProt Q9FH77 1-571)
chain: MASESSQSSSPSSSQPPSSVPSPSPGNNVGDTFIGSFISLISKYEIRYEGILYHLNVQDSTLGLKNVRSCGTEGRKKDGPQIPPCDKVYDYILFRGSDIKDLQVNPSPSAQSRQEIQSEQDVNQSPHSRPAMTMSSPISGYDSGYGLGRGSQWINTPALSSKPVPVTQHSSVPLSFQPPSANAGSLTESPVSLIDSTQSNAGSSMPIPSFVQGNKFASSGVPLGMMQKPVSSSSTIPNGPQIIDYFSSPIMGLVDDSSQVVTRSPDVSSNQSYSSNPSPLGQTQLHTPPGLASVSSNLSPPSEAQLSAPNIQKIYPSAPQAIGKVVYDPQSNHPHRSIPHELPAVASNSAPVIPGPLSKSPESFFDMDPSLQSRQQMVYRGQEMFAATNPASANVPSQSFAPRNHAPLLPLPVSAHQSRIPSSSIEYTEEFDFEAMNEKFKKSELWGYLGRNNQRNQNDYGEETAIEPNAEGKPAYNKDDFFDTISCNQLDRVARSGQQHNQFPEHMRQVPEAFGNNFQRPPPLQPGQGAYLAAQTNYRGGYHNNNNNNYYSNSGYGYYSGGRGRGRNTHF
Regarding B2, the binding result in assay [3] and in assay [4] was “binds” each time.

B3: … 5 (DCP5), endogenous (protein, UniProt Q9C658 1-611)
chain: MAADNTGSKSSSAADSYVGSLISLTSKSEIRYEGILYNINTDESSIGLQNVRSFGTEGRKKDGPQVPPSDKVYEYILFRGTDIKDLQVKASPPVQPPASTINNDPAIIQSHYPSPMPTSGSLPSTASGSLPDISSHNGQPGQHGMGFQNAMPLYQPGGNLGSWGASPQPPMYWQGFYTPPPNGLPQLHQQSLIRPPHGLPMPNSLQQPLQYPNFNTPPPPTGSSSLQGSSLPEAPSSLFPFSTSSQMLAPSSLPFPGLPPVTLSSSLQSTLQSAPSPSLASEMAPPLLSNKAPITAPPTLPQDTNLLSFSLSTTRATEASTGLPLSNKPSVVTGPISPPQTTPLTSAPVAGVSSSISQDKPKPLLVTPGQLLQSGSSAVSLSPPSTNADKDVEVVQVSSSAGLEQSVPVTSEAQPPILPLPSSARPTQKPNGHSFPNHNGYRGRGRGRGRGAGRSHQVMKFTEDFDFTAMNEKFNKDEVWGHLGKSTTLDGDEDDDSPTVDEAELPKIEAKPVYNKDDFFDSLSSNTIDRESQNSRPRFSEQRKLDTETFGEFSRFRGGRGGRGGYGRNNGYSRGGYGGRGYGGYGGRGGGGGGYGYGGRGQGRGVSNRTT
B3: the binding result in assay [2], in assay [3] and in assay [4] was “binds” in each case.

B4: PAT1 (protein, UniProt Q0WPK4 1-793)
chain: MDAFGIGSSLNQAPVTQDLKKFGDNSTGNTMFDASQYAFFGNDVVEEVELGGLEEEDEILSFTGIAEDFSFDKEEVGDSRLLSDVDDLASTFSKLNREPDVYSNTGPITDRRSSQNSLAAEWTHGEELPNWYGRQILDSDAIKDDKVWSAQPFSSLDRVEQRIPDRTKLYPEPQRQLHQDHNQQQFSSEPILVPKSSFVSYPPPGSISPDQRLGHPNIPYQSGGPQMGSPNFSPFPNLQPQLPSMHHGSPQHTGNRPQFRPALPLNNLPPAQWMNRQNMHPGDSSGIMNNAMLQQPPHQNGLMPPQMQGSQNRLPHPMQPPLGHMPGMQPQLFNSHLSRSSSSGNYDGMLGFGDLREVRPGSGHGNRQNVRFPQQGFDAGVQRRYPFRSKYMSAGEIENILRMQLVATHSNDPYVDDYYHQACLAKKSAGAKLKHHFCPNHLRDLQQRARSNNEPHAFLQVEALGRVPFSSIRRPRPLLEVDPPNSAKFGNAEHKPTDKPLDQEPMLAARVYIEDGLCLLLEVDDIDRFLEFNQLQDGGHQLKQRRQALLQSLAVSLQLGDPLAKNGQSQSLDDFLFLRVISLPKGRKLLIRYLQLIFPGSDLMRIVCMAIFRHLRSLFGVLSSDPDIIKTTNKLATVINLCIQNMELGPVSTCLAAVSCSSEQAPLRPLGSPVGDGASTVLKSILDRASELIRANNFNNAGIALWRASFNEFFNMLMRYCISKYDSIMQSLQLPPHFATEISEEAAKAIVREMPIELLRSSFPHIDEQQKRILMEFLKRSMLGSQKTEPVLS
For the molecule B4, the binding entry in assay [3] is listed as “binds”.

Source of the values: PMC7910438, “The TUTase URT1 connects decapping activators and prevents the accumulation of excessively deadenylated mRNAs to avoid siRNA biogenesis” (Nature Communications, 2021).
